The experiment deals with T1, Rmp64-3×Flag (UniProt Q8R2U2).
T1 sequence: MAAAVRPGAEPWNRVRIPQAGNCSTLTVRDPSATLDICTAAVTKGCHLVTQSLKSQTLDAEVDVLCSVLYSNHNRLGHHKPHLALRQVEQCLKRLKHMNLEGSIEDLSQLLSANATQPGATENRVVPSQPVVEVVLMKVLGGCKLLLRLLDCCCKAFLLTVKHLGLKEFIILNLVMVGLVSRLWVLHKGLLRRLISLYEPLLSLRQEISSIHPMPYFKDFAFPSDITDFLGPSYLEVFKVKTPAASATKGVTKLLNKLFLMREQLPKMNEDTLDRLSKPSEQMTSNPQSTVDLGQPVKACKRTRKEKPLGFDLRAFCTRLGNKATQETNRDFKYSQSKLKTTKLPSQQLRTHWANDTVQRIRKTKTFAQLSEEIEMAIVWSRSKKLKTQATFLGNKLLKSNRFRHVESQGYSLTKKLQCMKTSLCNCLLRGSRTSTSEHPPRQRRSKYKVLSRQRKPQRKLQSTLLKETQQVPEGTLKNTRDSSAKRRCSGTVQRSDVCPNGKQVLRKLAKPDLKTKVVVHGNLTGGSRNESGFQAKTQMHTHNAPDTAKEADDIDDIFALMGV
The experiment can be described thus: co-IP; anti-FLAG M2 gel on E14 mESC lysate brought to 150 mM KCl (20 mM HEPES-KOH pH 7.9, 10% glycerol, 0.1% IGEPAL, 1 mM DTT), 2 h at 4 °C, Flag peptide elution, western blot of endogenous subunits. A general note: In western blotting, separated proteins are transferred to a membrane and probed.

These are yes or no findings as the source states them, for the method shown. In cells and extracts the contact can be indirect. Some results given as binding are weak or reduced against the parent protein; the word gives no strength. Where a sequence is shown, tags or fusion partners need not be part of it.

B1: Rmp24 (protein, UniProt Q5XFZ0 1-217)
chain: MRQKYYIEAAARGLVGSCPGQARYLLWAYSSTHEDNSTFQETCPHCFQLLVLDNSRVRLKPKAKLTPKIQKLLNREARNDTLSFKEAKLLRKYKDSTSVLLITCRTCNRTVRHHGKSRSFLWALKSNAATAANKASPKTPKRTAPGSANLGQSTNGSKGKSPSLTIRTPTSGQSTPICSSRNGSKRKKHFSQLKALLSQSASDKNPKLDFRHFLSSL
In the case of B1, the binding entry is reported as “binds”.

B2: Rpp21 (protein, UniProt Q8R040 1-150)
chain: MAGPVKDREAFQRLSFLYQAAHCVLSQNPENQALARFYCHTEKTIAKRLVLRQDPSVKRTLCRSCSSLLIPGLTCTQRQRRRKGQRWTVQTCLTCQRSQRFLNDPKHLLWGDRPEAQLENQADINPSEPLPNIADLPKENIQTQALNTSE
Consider B2, for which the binding entry is reported as “no binding”.
